Earlier results in patent US11633350B2, “Hypotonic microbicidal formulations and methods of use” (priority 2014, dated 2023).
At least one read-out could not be matched to a standard name with certainty.

Conditions: 300 mg TDF doses

CC(C)OC(=O)OCOP(=O)(CO[C@H](C)Cn1cnc2c(N)ncnc21)OCOC(=O)OC(C)C.O=C(O)/C=C/C(=O)O [TDF, 2,4,6,8-Tetraoxa-5-phosphanonanedioic acid, 5-[[(1R)-2-(6-amino-9H-purin-9-yl)-1-methylethoxy]methyl]-, bis(1-methylethyl) ester, 5-oxide, (2E)-2-butenedioate (1:1)]
time to reach iPrEx EC90 PBMC concentrations: 7 days
